Measured values: US20160201132A1, “GENE EXPRESSION BIOMARKERS OF LAQUINIMOD RESPONSIVENESS” (Teva Pharmaceutical Industries Ltd., priority 2013, published 2016)
This continues a long series; more values of the same kind are listed elsewhere.

Tested on: PBMC of RRMS patients
Assay: Gene expression microarray analysis (HG-U133A-2) of PBMC from RRMS patients treated with LAQ, ancillary study to ALLEGRO
Format: in vivo, human
From the text: The goal of this ancillary study was to characterize gene expression changes and corresponding biological mechanisms induced in PBMC of RRMS patients by LAQ treatment. According to ALLEGRO clinical trial inclusion criteria, 25 patients were randomly assigned to receive LAQ (n=13, age 38.8±2.3 years, female/male ratio: 8/5) or placebo (n=12, age 37.2±3.4 years, female/male ratio: 8/4).
Peripheral blood samples were obtained from RRMS patients at baseline before start of LAQ treatment or placebo, after 0, 1, 6 and 24 month of treatment (visit 0, 1, 6 and 7 according to ALLEGRO clinical trial protocol correspondently) for gene microarray analysis.
Briefly, 1) Peripheral blood mononuclear cells (PBMC) were obtained from RRMS patients that participated in ALLEGRO and were treated daily with 0.6 mg LAQ or placebo. PBMC were subjected for gene expression analysis (HU-133A-2-Affymatrix arrays) at baseline and at 1 and 6 months of LAQ treatment; 2) Data was analyzed by Partek Genomics Solution software. Most informative genes (MIGs) were defined as those that differentiated between groups with p<0.01. Gene functional annotation, enrichment and pathway analysis were performed by Ingenuity software. For each time point, genes that changed in placebo group were excluded from further analysis; and 3) Verification of LAQ related mechanism was performed by Western blot.
PBMC were extracted from 15 ml peripheral blood, separated by Ficoll-Hypaque gradient. Total RNA was extracted using both Trizol (Invitrogen, USA) and Phase-Lock-Gel columns (Eppendorf, Germany) including a DNase digestion step. RNA integrity was assessed by RNA Experion automated electrophoresis system (Bio-Rad Laboratories, Hercules, Calif.).
Probe synthesis using 3 μg total RNA, hybridization, detection, and scanning was performed according to the standard Affymetrix, Inc. USA protocols; cDNA was synthesized using the Two-Cycle cDNA Synthesis Kit (Affymetrix, Inc., USA), and in-vitro transcription performed with the GeneChip IVT Labeling Kit (Affymetrix, Inc., USA). The biotin-labeled IVT-RNA was hybridized to HG-U133A-2 arrays containing 18,400 gene transcripts, each corresponding to 14,500 well-annotated human genes, washed in a GeneChip Fluidics Station 450 (Hewlett Packard, USA, GeneArray-™ scanner G2500A) and scanned according to the manufacturer's protocol (Affymetrix, Inc., USA).
Data analysis was performed on Partek Genomics Solution software (www.partek.com; Partek Incorporated, St. Louis, Mo.). Expression values were computed from raw CEL files by applying the Robust Multi-Chip Average (RMA) background correction algorithm. RMA correction included: 1) values background correction; 2) quintile normalization; 3) log 2 transformation; and 4) median polish summarization. The ANOVA, Repeated Measures and correlation analysis implicated in Partek software ware applied to evaluate LAQ effects. Most informative genes MIGs were defined as those that differentiated between experimental groups with p<0.01. All p-values were calculated for False Discovery Rate (FDR) multiple test correction at p=0.05.
Additionally, significance of individual genes was tested by parametric T-test and non parametric Mann-Whitney test using Bootstrapping approach based on repeated permutations of the data with 5% FDR for multiple testing.
Gene functional annotation, enrichment, and pathway analyses to identify the leading biological pathways that operated under LAQ treatment were performed by Ingenuity Pathways Analysis software (www.ingenuity.com).
ANOVA analysis was used to compare PBMC gene expression after 1, 6 or 24 month of LAQ treatment with baseline gene expression.
For each time point inventors performed analysis source of variation in dataset. (FIG. 1). Age, gender and batch effects were considered as confounders regarding LAQ or Placebo related changes. For each time point genes associated with Placebo effect were evaluated and excluded from further analysis. […]

CCN(C(=O)c1c(O)c2c(Cl)cccc2n(C)c1=O)c1ccccc1 [LAQ, 5-chloro-N-ethyl-4-hydroxy-1-methyl-2-oxo-N-phenyl-1,2-dihydroquinoline-3-carboxamide]
Fold-Change (1.0 vs. 0.0) (37966_at PARVB, one month of treatment vs baseline): −1.451
Fold-Change (1.0 vs. 0.0) (40687_at GJA4, one month of treatment vs baseline): −1.146
Fold-Change (1.0 vs. 0.0) (61297_at CASKIN2, one month of treatment vs baseline): −1.11
Fold-Change (1.0 vs. 0.0) (200833_s_at hCG_1757335 /// RAP1B, one month of treatment vs baseline): −1.129
Fold-Change (1.0 vs. 0.0) (200844_s_at PRDX6, one month of treatment vs baseline): −1.145
Fold-Change (1.0 vs. 0.0) (200845_s_at PRDX6, one month of treatment vs baseline): −1.2308
Fold-Change (1.0 vs. 0.0) (200885_at RHOC, one month of treatment vs baseline): −1.284
Fold-Change (1.0 vs. 0.0) (200905_x_at HLA-E, one month of treatment vs baseline): −1.071
Fold-Change (1.0 vs. 0.0) (201029_s_at CD99, one month of treatment vs baseline): −1.128
Fold-Change (1.0 vs. 0.0) (201124_at ITGB5, one month of treatment vs baseline): −1.252
Fold-Change (1.0 vs. 0.0) (201280_s_at DAB2, one month of treatment vs baseline): −1.644
Fold-Change (1.0 vs. 0.0) (201528_at RPA1, one month of treatment vs baseline): −1.2309
Fold-Change (1.0 vs. 0.0) (201616_s_at CALD1, one month of treatment vs baseline): −1.484
Fold-Change (1.0 vs. 0.0) (201885_s_at CYB5R3, one month of treatment vs baseline): −1.153
Fold-Change (1.0 vs. 0.0) (201904_s_at CTDSPL, one month of treatment vs baseline): −1.514
Fold-Change (1.0 vs. 0.0) (202332_at CSNK1E, one month of treatment vs baseline): −1.089
Fold-Change (1.0 vs. 0.0) (202466_at POLS, one month of treatment vs baseline): −1.101
Fold-Change (1.0 vs. 0.0) (202501_at MAPRE2, one month of treatment vs baseline): −1.123
Fold-Change (1.0 vs. 0.0) (202555_s_at MYLK, one month of treatment vs baseline): −1.592
Fold-Change (1.0 vs. 0.0) (202573_at CSNK1G2, one month of treatment vs baseline): −1.111
Fold-Change (1.0 vs. 0.0) (202619_s_at PLOD2, one month of treatment vs baseline): −1.289
Fold-Change (1.0 vs. 0.0) (202620_s_at PLOD2, one month of treatment vs baseline): −1.26
Fold-Change (1.0 vs. 0.0) (202708_s_at HIST2H2BE, one month of treatment vs baseline): −1.55
Fold-Change (1.0 vs. 0.0) (202774_s_at SFRS8, one month of treatment vs baseline): −1.098
Fold-Change (1.0 vs. 0.0) (202778_s_at ZMYM2, one month of treatment vs baseline): −1.127
Fold-Change (1.0 vs. 0.0) (202838_at FUCA1, one month of treatment vs baseline): 1.564
Fold-Change (1.0 vs. 0.0) (202974_at MPP1, one month of treatment vs baseline): −1.37
Fold-Change (1.0 vs. 0.0) (203180_at ALDH1A3, one month of treatment vs baseline): −1.167
Fold-Change (1.0 vs. 0.0) (203414_at MMD, one month of treatment vs baseline): −1.419
Fold-Change (1.0 vs. 0.0) (203896_s_at PLCB4, one month of treatment vs baseline): −1.139
Fold-Change (1.0 vs. 0.0) (203998_s_at SYT1, one month of treatment vs baseline): −1.135
Fold-Change (1.0 vs. 0.0) (204000_at GNB5, one month of treatment vs baseline): −1.195
Fold-Change (1.0 vs. 0.0) (204187_at GMPR, one month of treatment vs baseline): −1.473
Fold-Change (1.0 vs. 0.0) (204196_x_at PKNOX1, one month of treatment vs baseline): −1.117
Fold-Change (1.0 vs. 0.0) (204328_at TMC6, one month of treatment vs baseline): −1.084
Fold-Change (1.0 vs. 0.0) (204466_s_at SNCA, one month of treatment vs baseline): −1.562
Fold-Change (1.0 vs. 0.0) (204467_s_at SNCA, one month of treatment vs baseline): −1.476
Fold-Change (1.0 vs. 0.0) (204486_at (gene symbol not given), one month of treatment): −1.185
Fold-Change (1.0 vs. 0.0) (204597_x_at STC1, one month of treatment vs baseline): −1.144
Fold-Change (1.0 vs. 0.0) (204627_s_at ITGB3, one month of treatment vs baseline): −1.9911
Fold-Change (1.0 vs. 0.0) (204629_at PARVB, one month of treatment vs baseline): −1.275
Fold-Change (1.0 vs. 0.0) (204993_at GNAZ, one month of treatment vs baseline): −1.478
Fold-Change (1.0 vs. 0.0) (205128_x_at PTGS1, one month of treatment vs baseline): −1.543
Fold-Change (1.0 vs. 0.0) (205221_at HGD, one month of treatment vs baseline): −1.53
Fold-Change (1.0 vs. 0.0) (205426_s_at HIP1, one month of treatment vs baseline): −1.142
Fold-Change (1.0 vs. 0.0) (205434_s_at AAK1, one month of treatment vs baseline): −1.0984
Fold-Change (1.0 vs. 0.0) (205754_at F2, one month of treatment vs baseline): −1.144
Fold-Change (1.0 vs. 0.0) (205870_at BDKRB2, one month of treatment vs baseline): −1.141
Fold-Change (1.0 vs. 0.0) (206110_at (no gene symbol), one month of treatment vs baseline): −1.796
Fold-Change (1.0 vs. 0.0) (206167_s_at ARHGAP6, one month of treatment vs baseline): −1.768
Fold-Change (1.0 vs. 0.0) (206176_at BMP6, one month of treatment vs baseline): −1.53
Fold-Change (1.0 vs. 0.0) (206204_at GRB14, one month of treatment vs baseline): −1.8
Fold-Change (1.0 vs. 0.0) (206655_s_at GP1BB /// SEPT5, one month of treatment vs baseline): −1.814
Fold-Change (1.0 vs. 0.0) (206779_s_at ASMT, one month of treatment vs baseline): −1.133
Fold-Change (1.0 vs. 0.0) (207046_at HIST2H4A /// HIST2H4B, one month of treatment vs baseline): −1.237
Fold-Change (1.0 vs. 0.0) (207156_at HIST1H2AG, one month of treatment vs baseline): −1.674
Fold-Change (1.0 vs. 0.0) (207397_s_at HOXD13, one month of treatment vs baseline): −1.115
Fold-Change (1.0 vs. 0.0) (207523_at C6orf10, one month of treatment vs baseline): −1.111
Fold-Change (1.0 vs. 0.0) (207550_at MPL, one month of treatment vs baseline): −1.891
Fold-Change (1.0 vs. 0.0) (207554_x_at TBXA2R, one month of treatment vs baseline): −1.287
Fold-Change (1.0 vs. 0.0) (207558_s_at PITX2, one month of treatment vs baseline): −1.103
Fold-Change (1.0 vs. 0.0) (207745_at CABP2, one month of treatment vs baseline): −1.131
Fold-Change (1.0 vs. 0.0) (207799_x_at (no gene symbol), one month of treatment vs baseline): −1.204
Fold-Change (1.0 vs. 0.0) (207808_s_at PROS1, one month of treatment vs baseline): −1.964
Fold-Change (1.0 vs. 0.0) (207827_x_at SNCA, one month of treatment vs baseline): −1.353
Fold-Change (1.0 vs. 0.0) (207963_at C6orf54, one month of treatment vs baseline): −1.151
Fold-Change (1.0 vs. 0.0) (208327_at CYP2A13, one month of treatment vs baseline): −1.149
Fold-Change (1.0 vs. 0.0) (208343_s_at NR5A2, one month of treatment vs baseline): −1.117
Fold-Change (1.0 vs. 0.0) (208403_x_at MAX, one month of treatment vs baseline): −1.294
Fold-Change (1.0 vs. 0.0) (208490_x_at HIST1H2BF, one month of treatment vs baseline): −1.435
Fold-Change (1.0 vs. 0.0) (208506_at HIST1H3F, one month of treatment vs baseline): −1.131
Fold-Change (1.0 vs. 0.0) (208523_x_at HIST1H2BI, one month of treatment vs baseline): −1.475
Fold-Change (1.0 vs. 0.0) (208527_x_at HIST1H2BE, one month of treatment vs baseline): −1.415
Fold-Change (1.0 vs. 0.0) (208601_s_at TUBB1, one month of treatment vs baseline): −1.842
Fold-Change (1.0 vs. 0.0) (208690_s_at PDLIM1, one month of treatment vs baseline): −1.321
Fold-Change (1.0 vs. 0.0) (208750_s_at ARF1, one month of treatment vs baseline): −1.102
Fold-Change (1.0 vs. 0.0) (208752_x_at NAP1L1, one month of treatment vs baseline): −1.134
Fold-Change (1.0 vs. 0.0) (208753_s_at NAP1L1, one month of treatment vs baseline): −1.221
Fold-Change (1.0 vs. 0.0) (208786_s_at MAP1LC3B, one month of treatment vs baseline): −1.148
Fold-Change (1.0 vs. 0.0) (208791_at CLU, one month of treatment vs baseline): −1.776
Fold-Change (1.0 vs. 0.0) (208792_s_at CLU, one month of treatment vs baseline): −1.795
